# This is one part of the list.
# Sequences of proteins named here, by UniProt entry; tags and fusion partners are left off. A change or cut given only in a name is not applied to a line headed by its entry.
# UniProt Q96DX4: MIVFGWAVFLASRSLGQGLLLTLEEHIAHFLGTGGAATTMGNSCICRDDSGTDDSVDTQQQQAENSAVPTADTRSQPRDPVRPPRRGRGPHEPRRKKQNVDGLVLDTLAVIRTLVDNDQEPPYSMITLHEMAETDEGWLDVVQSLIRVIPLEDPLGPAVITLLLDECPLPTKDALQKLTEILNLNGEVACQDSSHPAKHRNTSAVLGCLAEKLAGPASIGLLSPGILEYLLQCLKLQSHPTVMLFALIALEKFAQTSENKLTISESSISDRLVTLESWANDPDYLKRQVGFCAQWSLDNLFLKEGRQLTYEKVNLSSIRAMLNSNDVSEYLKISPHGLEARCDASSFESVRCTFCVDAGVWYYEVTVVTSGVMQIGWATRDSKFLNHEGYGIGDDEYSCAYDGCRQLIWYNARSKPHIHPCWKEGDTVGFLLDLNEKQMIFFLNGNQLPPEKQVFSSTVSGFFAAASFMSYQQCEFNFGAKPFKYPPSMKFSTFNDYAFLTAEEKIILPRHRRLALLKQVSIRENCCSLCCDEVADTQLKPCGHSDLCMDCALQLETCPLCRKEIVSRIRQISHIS
# UniProt Q6UVJ0: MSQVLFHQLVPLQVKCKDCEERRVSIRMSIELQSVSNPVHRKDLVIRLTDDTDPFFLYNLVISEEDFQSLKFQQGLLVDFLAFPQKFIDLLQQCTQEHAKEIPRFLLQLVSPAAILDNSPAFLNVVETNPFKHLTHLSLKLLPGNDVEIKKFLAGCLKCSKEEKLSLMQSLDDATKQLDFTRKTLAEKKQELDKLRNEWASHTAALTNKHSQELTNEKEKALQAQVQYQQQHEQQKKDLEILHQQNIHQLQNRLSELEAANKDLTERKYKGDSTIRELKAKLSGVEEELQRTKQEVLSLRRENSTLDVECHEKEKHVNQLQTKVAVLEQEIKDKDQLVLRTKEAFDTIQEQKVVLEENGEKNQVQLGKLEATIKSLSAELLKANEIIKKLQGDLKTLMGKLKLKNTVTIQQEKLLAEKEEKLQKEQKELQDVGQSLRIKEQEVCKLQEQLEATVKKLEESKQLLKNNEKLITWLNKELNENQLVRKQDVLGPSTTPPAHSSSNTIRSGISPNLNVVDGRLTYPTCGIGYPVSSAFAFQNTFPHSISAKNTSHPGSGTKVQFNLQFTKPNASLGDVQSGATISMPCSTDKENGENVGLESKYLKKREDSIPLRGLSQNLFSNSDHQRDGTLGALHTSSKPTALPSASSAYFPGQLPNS
# UniProt Q14151: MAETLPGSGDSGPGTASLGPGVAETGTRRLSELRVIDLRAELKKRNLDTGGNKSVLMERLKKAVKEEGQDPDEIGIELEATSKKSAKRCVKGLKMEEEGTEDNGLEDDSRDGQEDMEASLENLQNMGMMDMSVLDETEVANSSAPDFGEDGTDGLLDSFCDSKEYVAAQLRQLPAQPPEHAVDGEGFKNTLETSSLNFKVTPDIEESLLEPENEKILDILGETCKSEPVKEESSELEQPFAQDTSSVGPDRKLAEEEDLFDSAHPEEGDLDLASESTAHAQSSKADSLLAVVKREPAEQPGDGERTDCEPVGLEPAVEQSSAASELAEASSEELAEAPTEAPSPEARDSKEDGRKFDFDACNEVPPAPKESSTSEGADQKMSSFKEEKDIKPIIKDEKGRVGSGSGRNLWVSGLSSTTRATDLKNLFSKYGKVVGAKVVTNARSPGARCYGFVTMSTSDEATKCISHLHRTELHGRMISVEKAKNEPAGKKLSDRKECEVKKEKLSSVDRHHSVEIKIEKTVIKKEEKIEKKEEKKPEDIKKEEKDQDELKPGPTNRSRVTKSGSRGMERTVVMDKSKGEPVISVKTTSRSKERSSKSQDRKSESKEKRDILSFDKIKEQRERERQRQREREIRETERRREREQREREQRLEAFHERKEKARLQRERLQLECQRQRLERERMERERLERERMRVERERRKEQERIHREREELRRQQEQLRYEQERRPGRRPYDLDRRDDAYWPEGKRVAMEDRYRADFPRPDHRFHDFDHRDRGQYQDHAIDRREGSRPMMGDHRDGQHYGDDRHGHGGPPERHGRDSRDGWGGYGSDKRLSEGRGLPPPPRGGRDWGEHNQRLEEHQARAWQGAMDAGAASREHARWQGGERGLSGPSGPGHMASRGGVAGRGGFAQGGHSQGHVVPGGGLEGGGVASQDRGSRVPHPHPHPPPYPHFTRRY
# UniProt O14521: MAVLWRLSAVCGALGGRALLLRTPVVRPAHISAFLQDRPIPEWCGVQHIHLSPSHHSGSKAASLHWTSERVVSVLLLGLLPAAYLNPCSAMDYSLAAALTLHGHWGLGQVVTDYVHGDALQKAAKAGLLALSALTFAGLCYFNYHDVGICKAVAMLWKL
# UniProt Q9Y6Y8: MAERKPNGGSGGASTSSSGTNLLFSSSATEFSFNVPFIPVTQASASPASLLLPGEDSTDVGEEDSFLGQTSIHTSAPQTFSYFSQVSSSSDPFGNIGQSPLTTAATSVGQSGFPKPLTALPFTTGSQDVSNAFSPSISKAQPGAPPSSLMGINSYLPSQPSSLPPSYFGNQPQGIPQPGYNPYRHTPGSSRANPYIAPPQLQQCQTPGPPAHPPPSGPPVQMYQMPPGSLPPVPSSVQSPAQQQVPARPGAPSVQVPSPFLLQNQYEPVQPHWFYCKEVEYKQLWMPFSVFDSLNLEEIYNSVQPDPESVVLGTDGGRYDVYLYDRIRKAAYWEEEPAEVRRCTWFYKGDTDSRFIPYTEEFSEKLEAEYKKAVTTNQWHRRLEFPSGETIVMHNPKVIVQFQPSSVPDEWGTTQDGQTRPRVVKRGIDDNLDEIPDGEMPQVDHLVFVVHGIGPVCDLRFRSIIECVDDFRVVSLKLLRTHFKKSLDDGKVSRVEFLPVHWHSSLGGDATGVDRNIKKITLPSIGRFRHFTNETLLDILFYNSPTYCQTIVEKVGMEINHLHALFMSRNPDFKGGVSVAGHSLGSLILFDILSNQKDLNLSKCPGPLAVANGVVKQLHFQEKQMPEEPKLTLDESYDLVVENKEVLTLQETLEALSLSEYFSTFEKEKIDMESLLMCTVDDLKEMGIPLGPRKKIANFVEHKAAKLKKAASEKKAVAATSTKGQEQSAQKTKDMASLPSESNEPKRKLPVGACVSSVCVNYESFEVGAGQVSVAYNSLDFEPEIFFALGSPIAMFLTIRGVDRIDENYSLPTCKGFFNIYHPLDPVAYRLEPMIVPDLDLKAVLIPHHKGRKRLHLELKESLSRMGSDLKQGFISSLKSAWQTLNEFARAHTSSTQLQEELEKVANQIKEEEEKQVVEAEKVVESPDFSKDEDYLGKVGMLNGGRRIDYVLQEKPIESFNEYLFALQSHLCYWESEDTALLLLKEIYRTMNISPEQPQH
# UniProt O94979: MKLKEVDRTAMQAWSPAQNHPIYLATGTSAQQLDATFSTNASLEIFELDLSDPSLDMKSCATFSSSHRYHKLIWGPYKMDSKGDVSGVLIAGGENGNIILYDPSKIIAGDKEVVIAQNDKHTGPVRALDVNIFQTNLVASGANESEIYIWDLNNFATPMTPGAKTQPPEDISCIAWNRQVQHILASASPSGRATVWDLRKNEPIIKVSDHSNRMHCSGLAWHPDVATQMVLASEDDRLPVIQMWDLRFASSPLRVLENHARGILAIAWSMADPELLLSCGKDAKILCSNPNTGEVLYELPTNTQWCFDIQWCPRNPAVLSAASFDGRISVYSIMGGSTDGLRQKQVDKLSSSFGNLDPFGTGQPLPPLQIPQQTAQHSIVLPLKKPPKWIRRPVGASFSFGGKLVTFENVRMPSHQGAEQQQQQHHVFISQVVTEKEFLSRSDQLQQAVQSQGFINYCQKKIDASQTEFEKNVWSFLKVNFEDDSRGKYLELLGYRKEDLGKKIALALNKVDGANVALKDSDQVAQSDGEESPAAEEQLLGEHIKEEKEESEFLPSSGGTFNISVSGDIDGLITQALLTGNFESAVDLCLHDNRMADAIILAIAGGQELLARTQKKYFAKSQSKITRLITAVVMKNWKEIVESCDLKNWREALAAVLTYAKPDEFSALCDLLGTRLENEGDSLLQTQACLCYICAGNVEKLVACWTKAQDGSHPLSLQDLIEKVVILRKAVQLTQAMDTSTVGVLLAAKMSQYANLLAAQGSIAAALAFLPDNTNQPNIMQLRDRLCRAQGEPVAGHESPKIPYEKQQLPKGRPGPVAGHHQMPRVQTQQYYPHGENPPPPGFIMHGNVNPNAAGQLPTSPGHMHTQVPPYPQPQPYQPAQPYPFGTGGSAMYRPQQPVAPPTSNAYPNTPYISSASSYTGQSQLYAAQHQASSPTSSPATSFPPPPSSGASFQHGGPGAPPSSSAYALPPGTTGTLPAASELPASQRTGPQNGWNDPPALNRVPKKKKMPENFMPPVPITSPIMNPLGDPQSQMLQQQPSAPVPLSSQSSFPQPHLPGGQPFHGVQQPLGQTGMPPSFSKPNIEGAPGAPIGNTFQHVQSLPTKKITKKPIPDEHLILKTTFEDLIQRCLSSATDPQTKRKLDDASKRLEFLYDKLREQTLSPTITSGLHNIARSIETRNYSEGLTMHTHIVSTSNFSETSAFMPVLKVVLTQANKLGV
# UniProt Q9NRG7: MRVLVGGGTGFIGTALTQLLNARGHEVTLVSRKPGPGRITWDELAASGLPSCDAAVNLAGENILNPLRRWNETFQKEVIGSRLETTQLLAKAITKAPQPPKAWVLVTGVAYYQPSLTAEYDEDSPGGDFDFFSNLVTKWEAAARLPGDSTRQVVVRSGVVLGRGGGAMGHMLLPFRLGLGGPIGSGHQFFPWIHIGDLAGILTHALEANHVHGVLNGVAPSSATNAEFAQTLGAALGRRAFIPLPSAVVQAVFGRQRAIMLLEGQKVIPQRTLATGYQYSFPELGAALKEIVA
# UniProt Q9NQC3: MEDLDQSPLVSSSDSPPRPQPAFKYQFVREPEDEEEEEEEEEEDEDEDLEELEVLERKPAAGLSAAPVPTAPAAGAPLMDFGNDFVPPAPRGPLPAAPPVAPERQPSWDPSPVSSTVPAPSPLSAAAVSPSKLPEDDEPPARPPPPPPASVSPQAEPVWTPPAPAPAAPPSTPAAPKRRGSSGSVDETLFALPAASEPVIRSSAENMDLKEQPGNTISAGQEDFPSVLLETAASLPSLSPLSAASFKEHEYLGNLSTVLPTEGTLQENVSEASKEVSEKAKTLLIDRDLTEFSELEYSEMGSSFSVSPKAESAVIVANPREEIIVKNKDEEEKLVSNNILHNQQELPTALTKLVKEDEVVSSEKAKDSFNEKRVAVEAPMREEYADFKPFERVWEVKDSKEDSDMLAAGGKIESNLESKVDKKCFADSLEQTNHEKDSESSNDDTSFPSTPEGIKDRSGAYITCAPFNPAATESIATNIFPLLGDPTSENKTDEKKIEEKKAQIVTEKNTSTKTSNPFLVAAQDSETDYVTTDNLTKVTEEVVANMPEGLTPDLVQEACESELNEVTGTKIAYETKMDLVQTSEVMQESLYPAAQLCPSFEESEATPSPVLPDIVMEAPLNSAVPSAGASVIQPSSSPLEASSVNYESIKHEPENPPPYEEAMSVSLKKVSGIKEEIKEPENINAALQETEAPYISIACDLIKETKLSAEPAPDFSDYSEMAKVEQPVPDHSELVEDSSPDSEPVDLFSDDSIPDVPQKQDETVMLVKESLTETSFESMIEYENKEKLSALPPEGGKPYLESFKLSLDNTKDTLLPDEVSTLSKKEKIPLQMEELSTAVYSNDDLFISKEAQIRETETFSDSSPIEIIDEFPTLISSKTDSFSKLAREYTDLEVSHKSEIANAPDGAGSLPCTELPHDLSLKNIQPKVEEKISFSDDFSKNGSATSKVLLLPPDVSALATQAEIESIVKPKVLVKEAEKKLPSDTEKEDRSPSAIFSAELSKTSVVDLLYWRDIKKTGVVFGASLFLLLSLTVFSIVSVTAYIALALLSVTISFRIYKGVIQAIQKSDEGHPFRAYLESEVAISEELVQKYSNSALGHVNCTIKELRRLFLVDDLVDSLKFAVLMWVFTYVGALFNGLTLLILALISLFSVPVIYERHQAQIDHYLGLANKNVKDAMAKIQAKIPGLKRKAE
# UniProt Q9BWG6: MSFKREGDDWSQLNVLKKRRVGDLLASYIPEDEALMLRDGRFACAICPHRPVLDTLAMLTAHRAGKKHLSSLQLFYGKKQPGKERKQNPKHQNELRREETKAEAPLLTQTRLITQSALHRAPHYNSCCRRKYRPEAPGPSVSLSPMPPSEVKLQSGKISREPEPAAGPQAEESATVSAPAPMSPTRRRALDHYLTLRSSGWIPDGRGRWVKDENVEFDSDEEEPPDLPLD
# UniProt Q96IW7: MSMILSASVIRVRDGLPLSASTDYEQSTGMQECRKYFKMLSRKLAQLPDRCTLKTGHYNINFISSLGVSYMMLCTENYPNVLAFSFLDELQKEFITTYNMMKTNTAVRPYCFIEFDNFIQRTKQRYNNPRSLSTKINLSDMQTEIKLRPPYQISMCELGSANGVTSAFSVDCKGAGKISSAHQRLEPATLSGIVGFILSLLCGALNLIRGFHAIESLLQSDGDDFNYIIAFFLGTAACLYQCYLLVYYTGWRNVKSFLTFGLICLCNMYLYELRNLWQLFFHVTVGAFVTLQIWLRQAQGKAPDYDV
# Columns and labels:
# Assay in all cases: log2 fold change, soluble protein after heating vs DMSO (PISA); higher = thermal stabilisation; K562 cells, 10 uM, 30 min; active = over 0.2 and 3.5 SD of the protein, either way, in both replicates (recomputed)
# [1] = compound: CN1CCN(CCOc2cc(OC3CCOCC3)c3c(Nc4c(Cl)ccc5c4OCO5)ncnc3c2)CC1 [saracatinib]
# Method in brief: (§1)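 For each measurement, 10 μM compound was applied for 30 min to K562 cells at 2×10^6 cells/mL. Aliquots were heated for 3 min across 48°C-58°C, pooled, and extracted in PBS with 0.5% NP-40 at 4°C; the supernatant after 21,000xg for 90 min was soluble protein. This was quantified by TMTpro 16plex LC-MS/MS with channel sums equalised, and thermal stability was reported relative to control samples from duplicates, on a log2 fold-change scale.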
# [2] = compound: CN1CCN(c2nc(C3=C(c4c[nH]c5ccccc45)C(=O)NC3=O)c3ccccc3n2)CC1 [sotrastaurin]
# Method in brief: as §1
# [3] = compound: CN1CCc2c(c3ccccc3n2Cc2ccc(C(=O)NO)cc2)C1 [Tubastatin A]
# Method in brief: as §1
# [4] = compound: CNC(=O)C1=CC=CC=C1NC2=NC(=NC=C2Cl)NC3=C(C=C(C=C3)N4CCOCC4)OC
# Method in brief: as §1
# [5] = compound: CNC(=O)c1ccc(Nc2ncc(C(F)(F)F)c(NCc3nccnc3N(C)S(C)(=O)=O)n2)cc1 [defactinib]
# Method in brief: as §1
# [6] = compound: CNCc1ccc(-c2[nH]c3cc(F)cc4c3c2CCNC4=O)cc1 [rucaparib]
# Method in brief: as §1
# [7] = compound: CNc1nc(-c2ccc3c(N)n[nH]c3c2)cc(N2C[C@@H](C(=O)NC3CCCCC3)CC[C@H]2C)n1
# Method in brief: as §1
# [8] = compound: COC(=O)N[C@@H](C)CNc1nccc(-c2cn(C(C)C)nc2-c2cc(Cl)cc(NS(C)(=O)=O)c2F)n1 [encorafenib]
# Method in brief: as §1
# [9] = compound: COC(=O)[C@H](CCSC)NC(=O)C1=C(C=C(C=C1)NC[C@H](CS)N)C2=CC=CC=C2
# Method in brief: as §1
# [10] = compound: COC1=CC=C(C=C1)CN2C=CC3=C2C=C(C=C3)C(=O)NO
# Method in brief: as §1
# [11] = compound: CON(C)C(=O)N1N=C(c2cc(F)ccc2F)S[C@@]1(CCCN)c1ccccc1 [filanesib]
# Method in brief: as §1
# [12] = compound: CO[C@H]1C[C@@H]2CC[C@@H](C)[C@@](O)(O2)C(=O)C(=O)N2CCCC[C@H]2C(=O)O[C@H]([C@H](C)C[C@@H]2CC[C@H](n3cnnn3)[C@H](OC)C2)CC(=O)[C@H](C)/C=C(\C)[C@@H](O)[C@@H](OC)C(=O)[C@H](C)C[C@H](C)/C=C/C=C/C=C/1C [zotarolimus]
# Method in brief: as §1
# [13] = compound: COc1cc(C(=O)O)ccc1NC(=O)[C@@H]1N[C@@H](CC(C)(C)C)[C@](C#N)(c2ccc(Cl)cc2F)[C@H]1c1cccc(Cl)c1F [idasanutlin]
# Method in brief: as §1
# [14] = compound: COc1cc(Nc2ncc3c(n2)-c2ccc(Cl)cc2C(c2c(F)cccc2OC)=NC3)ccc1C(=O)O [alisertib]
# Method in brief: as §1
# [15] = compound: COc1cc2nc(-c3cc(F)ccc3O)nc(N[C@@H]3CNC[C@H]3C(C)(C)O)c2cc1OC
# Method in brief: as §1
# [16] = compound: COc1cc2ncnc(Nc3ccc(F)c(Cl)c3)c2cc1OCCCN1CCOCC1 [gefitinib]
# Method in brief: as §1
# [17] = compound: COc1cccc2cc(-c3nc([C@H]4CC[C@H](C(=O)O)CC4)n4ncnc(N)c34)[nH]c12
# Method in brief: as §1
# [18] = compound: CS(=O)(=O)CCNCc1ccc(-c2ccc3ncnc(Nc4ccc(OCc5cccc(F)c5)c(Cl)c4)c3c2)o1 [lapatinib]
# Method in brief: as §1
# [19] = compound: CS(=O)(=O)N1CCN(Cc2cc3nc(-c4cccc5[nH]ncc45)nc(N4CCOCC4)c3s2)CC1 [pictilisib]
# Method in brief: as §1
# [20] = compound: CN1CC[C@H](c2c(O)cc(O)c3c(=O)cc(-c4ccccc4Cl)oc23)[C@H](O)C1 [alvocidib]
# Method in brief: as §1
Target,log2 fold change [1],log2 fold change [2],log2 fold change [3],log2 fold change [4],log2 fold change [5],log2 fold change [6],log2 fold change [7],log2 fold change [8],log2 fold change [9],log2 fold change [10],log2 fold change [11],log2 fold change [12],log2 fold change [13],log2 fold change [14],log2 fold change [15],log2 fold change [16],log2 fold change [17],log2 fold change [18],log2 fold change [19],log2 fold change [20]
RSPRY1 (UniProt Q96DX4),inactive: -0.073,inactive: -0.01,inactive: 0.009,inactive: -0.037,inactive: 0.013,inactive: 0.118,inactive: 0.126,inactive: 0.04,inactive: 0.009,inactive: -0.065,inactive: 0.01,inactive: -0.01,inactive: -0.061,inactive: -0.051,inactive: -0.006,inactive: 0.048,inactive: 0.031,inactive: 0.046,inactive: 0.054,
SDHAF2 (UniProt Q9NX18),inactive: 0.08,inactive: -0.035,inactive: 0.037,inactive: 0.016,inactive: -0.002,inactive: 0.115,inactive: -0.078,inactive: -0.003,inactive: 0.01,inactive: 0.063,inactive: -0.03,inactive: 0.068,inactive: -0.085,inactive: 0.02,inactive: -0.163,inactive: 0.09,inactive: 0.102,inactive: -0.013,inactive: 0.091,
"SDHB, A0A087WWT1",inactive: -0.143,inactive: 0.088,,inactive: 0.053,inactive: -0.002,inactive: 0.03,inactive: -0.228,inactive: -0.055,inactive: 0.013,inactive: -0.11,inactive: -0.011,inactive: -0.116,inactive: 0.031,inactive: 0.119,inactive: 0.07,,inactive: -0.023,inactive: -0.148,inactive: 0.059,inactive: 0.059
SASS6 (UniProt Q6UVJ0),inactive: -0.09,inactive: -0.194,inactive: 0.095,inactive: 0.006,inactive: -0.052,,inactive: 0.098,,inactive: 0.034,inactive: 0.067,inactive: 0.035,inactive: 0.087,inactive: -0.059,inactive: 0.067,inactive: 0.107,inactive: 0.051,inactive: -0.359,inactive: 0,inactive: 0.053,inactive: -0.317
SEC24B isoform 3 (UniProt O95487),inactive: -0.027,inactive: -0.058,inactive: 0.168,,inactive: -0.032,inactive: 0.17,inactive: 0.001,inactive: 0.049,inactive: -0.064,inactive: 0.011,inactive: 0.141,inactive: -0.043,inactive: -0.056,inactive: 0.049,inactive: -0.014,,inactive: 0.004,inactive: 0.061,inactive: 0.099,inactive: -0.03
SCD (UniProt O00767),inactive: 0.066,inactive: 0.036,inactive: -0.234,inactive: 0.024,inactive: 0.025,inactive: -0.006,inactive: -0.164,inactive: 0.04,inactive: 0.045,active: -0.458,inactive: -0.074,inactive: -0.024,inactive: -0.001,inactive: 0.014,inactive: -0.054,inactive: 0.019,inactive: 0.048,inactive: -0.017,inactive: -0.053,
SAFB2 (UniProt Q14151),inactive: -0.055,inactive: -0.028,inactive: -0.048,inactive: -0.022,inactive: 0.144,inactive: 0.1,inactive: -0.067,inactive: 0.029,inactive: -0.005,inactive: -0.044,active: 0.409,inactive: 0.017,inactive: 0.085,inactive: -0.045,inactive: -0.046,inactive: 0,inactive: -0.037,inactive: 0.048,inactive: -0.032,
SDHD (UniProt O14521),inactive: 0.091,inactive: 0.017,inactive: -0.033,inactive: 0.146,inactive: 0.023,inactive: 0.054,inactive: -0.072,inactive: -0.081,inactive: 0.177,,inactive: 0.062,inactive: -0.032,inactive: -0.115,inactive: 0.026,inactive: -0.057,inactive: 0.062,inactive: 0.012,inactive: 0.005,inactive: 0.218,inactive: -0.081
RTF1 (UniProt Q92541),inactive: 0,inactive: -0.022,inactive: 0.042,inactive: 0.021,inactive: -0.091,inactive: -0.028,inactive: 0.037,inactive: 0.022,inactive: -0.017,inactive: -0.001,inactive: -0.046,inactive: 0.007,inactive: -0.021,inactive: 0.021,inactive: 0.056,inactive: 0.08,inactive: 0.004,inactive: 0.005,inactive: 0.033,inactive: -0.094
SCAF8 isoform 2 (UniProt Q9UPN6),inactive: -0.078,inactive: -0.09,inactive: 0.006,inactive: -0.085,inactive: -0.083,inactive: 0.004,inactive: 0.016,inactive: 0.018,inactive: -0.06,inactive: 0.026,inactive: 0.002,inactive: 0.022,inactive: -0.003,inactive: -0.027,inactive: 0.048,inactive: 0.058,inactive: 0.015,inactive: -0.007,inactive: -0.055,
SCLY (UniProt Q96I15),inactive: 0.041,inactive: 0.035,inactive: -0.019,inactive: -0.084,inactive: -0.036,inactive: -0.028,inactive: -0.037,inactive: -0.007,inactive: 0.01,inactive: -0.001,inactive: -0.011,inactive: 0.029,inactive: 0.012,inactive: -0.027,inactive: 0.055,inactive: -0.002,inactive: 0.029,inactive: 0.023,inactive: 0.031,inactive: -0.03
SARAF (UniProt Q96BY9),inactive: 0.12,inactive: 0.03,inactive: 0.105,,inactive: -0.177,inactive: -0.15,inactive: -0.231,inactive: -0.221,inactive: -0.056,,inactive: 0.266,inactive: 0.043,inactive: 0.104,,inactive: -0.439,,,inactive: 0.054,inactive: -0.007,inactive: -0.068
SEC23IP (UniProt Q9Y6Y8),inactive: -0.097,inactive: -0.048,inactive: 0.043,inactive: -0.092,inactive: -0.156,inactive: -0.019,inactive: -0.045,inactive: 0.058,inactive: 0.025,inactive: -0.006,inactive: 0,inactive: -0.002,inactive: 0.016,inactive: 0,inactive: -0.065,inactive: 0.009,inactive: -0.096,inactive: 0.035,inactive: -0.006,
SEC31A (UniProt O94979),inactive: -0.086,inactive: -0.084,inactive: 0.019,inactive: 0.043,inactive: -0.036,inactive: 0.002,inactive: -0.015,inactive: 0.062,inactive: -0.03,inactive: 0.01,inactive: 0.063,inactive: 0.029,inactive: -0.039,inactive: 0.006,inactive: 0.211,inactive: 0.008,inactive: -0.01,inactive: -0.036,inactive: -0.002,
SDR39U1 (UniProt Q9NRG7),inactive: -0.011,inactive: 0.356,inactive: -0.052,inactive: 0.729,inactive: 0.453,inactive: -0.105,inactive: 1.16,inactive: -0.157,inactive: -0.367,,inactive: -0.043,inactive: -0.611,inactive: -0.346,inactive: -0.246,inactive: -0.165,inactive: 0.286,inactive: -0.258,inactive: 1.16,inactive: 0.087,inactive: 0.1
RTN4 isoform 2 (UniProt Q9NQC3),inactive: -0.017,inactive: 0.058,inactive: 0.021,inactive: 0.111,inactive: 0.015,,inactive: -0.078,,inactive: 0.009,inactive: -0.088,inactive: 0.126,inactive: -0.012,inactive: -0.057,,inactive: 0.065,,,inactive: -0.046,inactive: 0.029,inactive: 0.027
SCNM1 (UniProt Q9BWG6),inactive: -0.001,inactive: 0,inactive: 0.191,inactive: -0.026,,inactive: -0.016,inactive: 0.017,inactive: 0.001,,inactive: -0.093,inactive: 0.134,,inactive: 0.135,inactive: -0.021,inactive: 0,inactive: -0.015,inactive: 0.035,inactive: -0.078,inactive: 0.027,
SEC22A (UniProt Q96IW7),inactive: 0.032,,inactive: 0.088,inactive: -0.085,,,inactive: 0.078,,,inactive: 0.179,,inactive: -0.085,inactive: -0.121,,inactive: 0.076,,,inactive: 0.058,inactive: 0.116,inactive: 0.038

# Some entries already given, reduced to log2 fold change [1]:
Target	log2 fold change [1]
SDHD (UniProt O14521)	inactive: 0.091
RTF1 (UniProt Q92541)	inactive: 0

# Reference: the supplement of paper PMC10849652
